Values of other authors as cited in patent US7479498B2, “Treatments for viral infections” (priority 1999, dated 2009).
Some results were stated once for a whole list of compounds, not compound by compound. For at least one compound, name, drawing or mass did not settle the structure.

System: HIV
Details: comparison value for current HIV drugs; cited from earlier work

Row | SMILES | decrease in viral activity by current HIV drugs
1 | Cc1cn([C@H]2C=C[C@@H](CO)O2)c(=O)[nH]c1=O [Composition D4T] | 0.4-0.7 log
2 | Cc1cn([C@H]2C[C@H](N=[N+]=[N-])[C@@H](CO)O2)c(=O)[nH]c1=O [AZT, 3′-azido-3′-deoxythymidine] | 0.4-0.7 log
